Structures can show the parent of a compound that is named as a salt. This is one part of the list. The calls rarely recur for the same compound in another form.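 Kinases, fused to nanoluciferase, were expressed in K562 cells; luminescence was measured every 4 h from 2 to 18 h as percent of control (DMSO = 100%, positive control = 0%). A time point is decreased if signal falls significantly (2 sigma). Hits were called by the authors by a rule that is not shown; the count of time points alone does not decide it.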
Assays:
Assay in all cases: kinase-Nluc reporter destabilization hit call (1 = scored as downregulated) (binary); higher = compound decreases kinase abundance
Conditions in all cases: K562; 2-18 h
[1] = molecular target: IRAK3 (UniProt Q9Y616)
[2] = molecular target: JAK1 (UniProt P23458)
[3] = molecular target: LCK (UniProt P06239)
[4] = molecular target: LIMK1 (UniProt P53667)
[5] = molecular target: LIMK2 (UniProt P53671)
[6] = molecular target: LMTK2 (UniProt Q8IWU2)
[7] = molecular target: LYN (UniProt P07948)
[8] = molecular target: MAP2K1 (UniProt Q02750)
[9] = molecular target: MAP2K2 (UniProt P36507)
[10] = molecular target: MAP4K2 (UniProt Q12851)
[11] = molecular target: MAPK1 (UniProt P28482)
[12] = molecular target: MAPK4 (UniProt P31152)
[13] = molecular target: MAPKAPK2 (UniProt P49137)
[14] = molecular target: MKNK1 (UniProt Q9BUB5)
[15] = molecular target: NTRK2 (UniProt Q16620)
[16] = molecular target: NTRK3 (UniProt Q16288)
[17] = molecular target: PAK4 (UniProt O96013)
[18] = molecular target: PBK (UniProt Q96KB5)
[19] = molecular target: PDGFRB (UniProt P09619)
[20] = molecular target: PDK1 (UniProt Q15118)

Chains of the proteins cited; added tags and fusions are not shown. Lines headed by an entry give the natural chain unless they say otherwise; changes in a name come on top.
UniProt Q9Y616: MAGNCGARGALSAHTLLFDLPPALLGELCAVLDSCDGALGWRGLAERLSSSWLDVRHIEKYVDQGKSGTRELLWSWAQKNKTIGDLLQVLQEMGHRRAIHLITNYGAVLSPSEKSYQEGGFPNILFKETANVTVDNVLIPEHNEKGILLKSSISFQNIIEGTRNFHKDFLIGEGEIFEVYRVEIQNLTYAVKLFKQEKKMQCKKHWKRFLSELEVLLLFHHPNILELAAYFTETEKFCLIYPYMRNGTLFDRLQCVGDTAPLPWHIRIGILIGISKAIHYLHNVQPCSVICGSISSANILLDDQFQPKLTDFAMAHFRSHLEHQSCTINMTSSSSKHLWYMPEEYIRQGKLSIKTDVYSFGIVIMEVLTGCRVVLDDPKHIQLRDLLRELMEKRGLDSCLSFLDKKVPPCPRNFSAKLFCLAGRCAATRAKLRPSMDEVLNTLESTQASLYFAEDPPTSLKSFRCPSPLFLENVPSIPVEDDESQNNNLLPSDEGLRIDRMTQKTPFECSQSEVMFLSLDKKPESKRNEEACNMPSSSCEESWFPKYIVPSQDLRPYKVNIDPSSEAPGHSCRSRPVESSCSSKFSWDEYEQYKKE
UniProt P23458: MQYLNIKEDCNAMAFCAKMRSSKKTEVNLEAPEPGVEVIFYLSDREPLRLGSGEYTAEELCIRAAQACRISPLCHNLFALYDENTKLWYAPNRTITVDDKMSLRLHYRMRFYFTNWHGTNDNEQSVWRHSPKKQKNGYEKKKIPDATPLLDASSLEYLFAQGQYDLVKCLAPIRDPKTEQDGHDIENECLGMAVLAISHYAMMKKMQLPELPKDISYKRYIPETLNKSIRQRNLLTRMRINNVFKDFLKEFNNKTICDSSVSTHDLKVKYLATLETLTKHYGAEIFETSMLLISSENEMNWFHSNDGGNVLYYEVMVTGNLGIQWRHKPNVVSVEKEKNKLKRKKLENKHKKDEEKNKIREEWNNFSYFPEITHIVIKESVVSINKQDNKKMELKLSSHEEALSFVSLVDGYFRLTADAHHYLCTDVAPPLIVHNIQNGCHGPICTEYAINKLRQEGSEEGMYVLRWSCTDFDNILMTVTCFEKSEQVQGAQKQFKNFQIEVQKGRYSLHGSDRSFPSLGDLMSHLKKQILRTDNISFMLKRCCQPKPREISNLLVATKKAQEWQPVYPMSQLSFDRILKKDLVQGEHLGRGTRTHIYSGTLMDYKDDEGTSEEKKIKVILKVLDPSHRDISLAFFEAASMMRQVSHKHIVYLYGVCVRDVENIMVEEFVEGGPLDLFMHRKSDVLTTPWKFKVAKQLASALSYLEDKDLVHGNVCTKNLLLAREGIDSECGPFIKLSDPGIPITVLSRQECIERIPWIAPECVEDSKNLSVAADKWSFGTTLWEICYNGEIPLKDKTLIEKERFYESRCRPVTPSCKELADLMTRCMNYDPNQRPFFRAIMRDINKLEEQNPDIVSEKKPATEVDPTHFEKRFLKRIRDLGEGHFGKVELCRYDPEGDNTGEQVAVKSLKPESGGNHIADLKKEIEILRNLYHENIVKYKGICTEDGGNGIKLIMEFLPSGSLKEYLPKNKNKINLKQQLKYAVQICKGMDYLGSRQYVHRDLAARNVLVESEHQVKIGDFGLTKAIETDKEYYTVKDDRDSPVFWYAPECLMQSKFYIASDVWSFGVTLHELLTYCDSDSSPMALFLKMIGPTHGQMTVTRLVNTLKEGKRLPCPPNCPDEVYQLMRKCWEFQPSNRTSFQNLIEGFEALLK
UniProt P53667: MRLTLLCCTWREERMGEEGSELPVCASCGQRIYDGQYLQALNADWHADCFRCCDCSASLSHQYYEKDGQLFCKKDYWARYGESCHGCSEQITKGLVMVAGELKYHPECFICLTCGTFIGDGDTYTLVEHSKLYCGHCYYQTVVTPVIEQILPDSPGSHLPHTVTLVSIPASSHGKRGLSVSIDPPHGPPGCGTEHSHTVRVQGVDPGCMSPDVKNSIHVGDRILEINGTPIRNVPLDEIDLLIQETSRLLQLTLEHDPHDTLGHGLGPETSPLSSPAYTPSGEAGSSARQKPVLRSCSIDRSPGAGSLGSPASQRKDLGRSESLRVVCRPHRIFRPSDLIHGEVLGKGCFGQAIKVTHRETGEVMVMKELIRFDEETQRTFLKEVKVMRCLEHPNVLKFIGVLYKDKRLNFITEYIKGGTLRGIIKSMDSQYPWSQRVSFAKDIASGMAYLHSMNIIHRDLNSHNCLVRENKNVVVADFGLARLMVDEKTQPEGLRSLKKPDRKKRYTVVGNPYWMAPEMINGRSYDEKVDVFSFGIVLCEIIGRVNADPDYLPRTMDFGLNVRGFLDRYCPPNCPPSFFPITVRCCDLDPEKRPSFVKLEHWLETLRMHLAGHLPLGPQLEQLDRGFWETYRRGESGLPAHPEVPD
UniProt P53671: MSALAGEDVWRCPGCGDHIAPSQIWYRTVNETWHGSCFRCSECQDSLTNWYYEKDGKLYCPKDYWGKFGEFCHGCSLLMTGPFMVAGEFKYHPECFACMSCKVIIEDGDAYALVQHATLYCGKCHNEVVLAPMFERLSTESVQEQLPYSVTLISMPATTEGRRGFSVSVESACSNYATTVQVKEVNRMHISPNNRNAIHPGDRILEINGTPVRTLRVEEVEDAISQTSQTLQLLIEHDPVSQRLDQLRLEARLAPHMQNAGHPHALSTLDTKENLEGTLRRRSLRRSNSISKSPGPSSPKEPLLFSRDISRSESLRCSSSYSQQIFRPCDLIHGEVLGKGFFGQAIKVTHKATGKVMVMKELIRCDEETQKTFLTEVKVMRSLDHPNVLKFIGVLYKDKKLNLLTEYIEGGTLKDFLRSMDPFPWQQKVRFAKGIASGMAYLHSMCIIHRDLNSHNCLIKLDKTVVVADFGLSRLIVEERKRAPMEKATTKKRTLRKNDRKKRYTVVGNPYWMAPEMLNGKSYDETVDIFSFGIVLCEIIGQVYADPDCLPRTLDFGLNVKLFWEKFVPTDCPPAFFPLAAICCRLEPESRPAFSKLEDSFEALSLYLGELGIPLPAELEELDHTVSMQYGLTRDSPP
UniProt P07948: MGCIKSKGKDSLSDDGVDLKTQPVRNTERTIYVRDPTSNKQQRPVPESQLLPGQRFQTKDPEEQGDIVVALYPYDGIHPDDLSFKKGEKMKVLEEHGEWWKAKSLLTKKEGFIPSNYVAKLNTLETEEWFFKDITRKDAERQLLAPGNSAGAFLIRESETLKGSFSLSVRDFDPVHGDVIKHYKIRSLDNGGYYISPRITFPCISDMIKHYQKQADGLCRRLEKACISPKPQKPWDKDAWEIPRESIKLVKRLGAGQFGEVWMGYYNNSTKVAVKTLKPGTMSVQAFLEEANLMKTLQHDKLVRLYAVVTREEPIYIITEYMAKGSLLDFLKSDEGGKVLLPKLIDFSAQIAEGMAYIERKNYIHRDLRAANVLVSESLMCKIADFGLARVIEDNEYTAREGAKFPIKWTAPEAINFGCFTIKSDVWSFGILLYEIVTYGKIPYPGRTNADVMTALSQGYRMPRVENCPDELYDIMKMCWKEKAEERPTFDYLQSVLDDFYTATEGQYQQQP
UniProt Q12851: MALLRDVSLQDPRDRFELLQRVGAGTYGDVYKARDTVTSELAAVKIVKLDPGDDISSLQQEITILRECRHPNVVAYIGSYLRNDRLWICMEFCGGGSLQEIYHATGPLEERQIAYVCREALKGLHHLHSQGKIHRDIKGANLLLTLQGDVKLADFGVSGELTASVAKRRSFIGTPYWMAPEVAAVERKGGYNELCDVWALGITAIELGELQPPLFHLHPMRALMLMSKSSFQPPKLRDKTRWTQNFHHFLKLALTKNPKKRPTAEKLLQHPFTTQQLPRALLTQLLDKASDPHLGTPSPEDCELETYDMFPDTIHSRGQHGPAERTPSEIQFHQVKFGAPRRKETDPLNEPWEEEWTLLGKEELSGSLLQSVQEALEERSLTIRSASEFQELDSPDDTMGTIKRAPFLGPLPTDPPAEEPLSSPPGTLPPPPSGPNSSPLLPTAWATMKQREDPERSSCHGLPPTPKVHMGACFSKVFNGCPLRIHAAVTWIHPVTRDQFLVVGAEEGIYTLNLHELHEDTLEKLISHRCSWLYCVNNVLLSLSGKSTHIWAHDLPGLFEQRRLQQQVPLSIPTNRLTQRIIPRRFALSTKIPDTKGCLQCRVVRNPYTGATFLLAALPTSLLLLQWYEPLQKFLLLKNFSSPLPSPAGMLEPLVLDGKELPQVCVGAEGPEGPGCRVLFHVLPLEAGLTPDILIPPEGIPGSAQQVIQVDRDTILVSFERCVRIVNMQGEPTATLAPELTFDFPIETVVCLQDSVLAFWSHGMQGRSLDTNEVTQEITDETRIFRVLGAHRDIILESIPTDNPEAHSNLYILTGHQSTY
UniProt P28482, whole entry: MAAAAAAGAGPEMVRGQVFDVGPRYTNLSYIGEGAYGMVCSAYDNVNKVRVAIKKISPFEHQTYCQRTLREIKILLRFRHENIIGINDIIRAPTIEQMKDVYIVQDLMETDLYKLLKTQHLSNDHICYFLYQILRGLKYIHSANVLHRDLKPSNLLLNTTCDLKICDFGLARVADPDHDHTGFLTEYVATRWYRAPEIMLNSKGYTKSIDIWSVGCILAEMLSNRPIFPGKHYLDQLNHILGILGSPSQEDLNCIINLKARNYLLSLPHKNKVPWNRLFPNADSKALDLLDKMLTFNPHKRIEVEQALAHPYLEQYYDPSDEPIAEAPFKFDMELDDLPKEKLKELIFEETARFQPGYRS
UniProt Q96KB5: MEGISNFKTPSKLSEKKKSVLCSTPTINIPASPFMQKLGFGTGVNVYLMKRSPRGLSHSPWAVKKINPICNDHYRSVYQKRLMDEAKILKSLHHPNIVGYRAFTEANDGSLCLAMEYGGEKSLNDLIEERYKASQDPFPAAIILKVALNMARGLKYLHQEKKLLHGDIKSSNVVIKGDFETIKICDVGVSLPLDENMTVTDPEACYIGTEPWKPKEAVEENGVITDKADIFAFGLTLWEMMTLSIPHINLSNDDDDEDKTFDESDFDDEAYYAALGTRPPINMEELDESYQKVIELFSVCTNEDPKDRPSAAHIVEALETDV
UniProt P09619, whole entry: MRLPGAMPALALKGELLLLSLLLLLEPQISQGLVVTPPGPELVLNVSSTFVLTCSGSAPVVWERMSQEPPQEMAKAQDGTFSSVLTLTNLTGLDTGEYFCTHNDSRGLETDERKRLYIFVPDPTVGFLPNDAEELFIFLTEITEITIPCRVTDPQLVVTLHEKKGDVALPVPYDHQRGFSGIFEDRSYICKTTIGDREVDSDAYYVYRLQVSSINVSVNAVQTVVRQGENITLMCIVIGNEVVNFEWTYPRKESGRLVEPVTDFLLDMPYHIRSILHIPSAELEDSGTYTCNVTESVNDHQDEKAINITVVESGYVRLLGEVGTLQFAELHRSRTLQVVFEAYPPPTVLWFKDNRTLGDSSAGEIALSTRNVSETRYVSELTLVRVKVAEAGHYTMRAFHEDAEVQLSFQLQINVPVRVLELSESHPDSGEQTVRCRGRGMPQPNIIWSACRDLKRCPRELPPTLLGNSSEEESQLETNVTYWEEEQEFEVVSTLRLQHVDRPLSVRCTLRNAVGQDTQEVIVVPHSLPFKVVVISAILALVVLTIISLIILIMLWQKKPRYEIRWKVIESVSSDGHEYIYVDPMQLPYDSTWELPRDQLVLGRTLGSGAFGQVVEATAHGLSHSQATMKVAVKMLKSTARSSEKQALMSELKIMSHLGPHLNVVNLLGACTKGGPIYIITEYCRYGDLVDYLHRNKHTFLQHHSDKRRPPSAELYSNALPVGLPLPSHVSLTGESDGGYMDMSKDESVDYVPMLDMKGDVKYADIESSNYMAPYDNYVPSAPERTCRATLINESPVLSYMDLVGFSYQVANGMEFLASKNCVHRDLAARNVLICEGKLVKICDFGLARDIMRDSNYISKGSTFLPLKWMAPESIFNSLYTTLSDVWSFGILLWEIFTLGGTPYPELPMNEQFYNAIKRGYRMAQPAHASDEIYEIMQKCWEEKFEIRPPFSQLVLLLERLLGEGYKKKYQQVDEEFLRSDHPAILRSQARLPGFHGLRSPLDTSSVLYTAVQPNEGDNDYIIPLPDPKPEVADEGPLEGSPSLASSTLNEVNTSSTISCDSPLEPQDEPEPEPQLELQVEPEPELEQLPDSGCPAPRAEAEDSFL
UniProt Q15118, whole entry, looked up: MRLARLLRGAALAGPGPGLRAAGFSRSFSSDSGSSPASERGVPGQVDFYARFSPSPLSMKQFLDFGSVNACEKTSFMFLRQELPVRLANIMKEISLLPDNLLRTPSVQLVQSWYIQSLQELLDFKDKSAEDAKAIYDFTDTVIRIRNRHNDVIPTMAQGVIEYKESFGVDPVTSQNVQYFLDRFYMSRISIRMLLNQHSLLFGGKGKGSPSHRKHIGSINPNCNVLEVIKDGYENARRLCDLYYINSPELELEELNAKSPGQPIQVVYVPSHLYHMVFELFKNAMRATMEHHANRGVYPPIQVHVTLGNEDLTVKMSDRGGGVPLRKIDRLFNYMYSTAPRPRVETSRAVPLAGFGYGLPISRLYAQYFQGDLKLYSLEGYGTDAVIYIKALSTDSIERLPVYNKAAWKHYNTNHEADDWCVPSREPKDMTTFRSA

Measured: kinase-Nluc reporter destabilization hit call

COc1ccccc1/C=C1\C(=O)Nc2ccccc21 (10 µM)
inactive: [1] 0 | [2] 0 | [3] 0 | [4] 0 | [5] 0 | [6] 0 | [7] 0 | [8] 0 | [9] 0 | [10] 0 | [11] 0 | [12] 0 | [13] 0 | [14] 0 | [15] 0 | [16] 0 | [17] 0 | [18] 0 | [19] 0 | [20] 0

CCN1/C(=C/C(C)=O)Sc2ccc(OC)cc21 (10 µM)
inactive: [1] 0 | [2] 0 | [3] 0 | [4] 0 | [5] 0 | [6] 0 | [7] 0 | [8] 0 | [9] 0 | [10] 0 | [11] 0 | [12] 0 | [13] 0 | [14] 0 | [15] 0 | [16] 0 | [17] 0 | [18] 0 | [19] 0 | [20] 0

CCOc1c([C@H](C)n2nc(C)c3c(N)ncnc32)cc(Cl)c(F)c1[C@@H]1CNC(=O)C1 [Parsaclisib (hydrochloride)] (10 µM)
inactive: [1] 0 | [2] 0 | [3] 0 | [4] 0 | [5] 0 | [6] 0 | [7] 0 | [8] 0 | [9] 0 | [10] 0 | [11] 0 | [12] 0 | [13] 0 | [14] 0 | [15] 0 | [16] 0 | [17] 0 | [18] 0 | [19] 0 | [20] 0

CCOc1nc(Nc2ccc(C(=O)N3CCOCC3)cc2OC)nc2[nH]ccc12 [LRRK2 inhibitor 1] (2.5 µM)
inactive: [1] 0 | [2] 0 | [3] 0 | [4] 0 | [5] 0 | [6] 0 | [7] 0 | [8] 0 | [9] 0 | [10] 0 | [11] 0 | [12] 0 | [13] 0 | [14] 0 | [15] 0 | [16] 0 | [17] 0 | [18] 0 | [19] 0 | [20] 0

C=CC(=O)N1CCC(Oc2cc3c(Nc4ccc(Cl)c(Cl)c4F)ncnc3cc2OC)CC1 [Poziotinib] (2.5 µM)
inactive: [1] 0 | [2] 0 | [3] 0 | [4] 0 | [5] 0 | [6] 0 | [7] 0 | [8] 0 | [9] 0 | [10] 0 | [11] 0 | [12] 0 | [13] 0 | [14] 0 | [15] 0 | [16] 0 | [17] 0 | [18] 0 | [19] 0 | [20] 0

CC(C)Oc1ccc(-c2cnc3c(-c4ccnc5ccccc45)cnn3c2)cc1 (10 µM)
inactive: [1] 0 | [2] 0 | [3] 0 | [4] 0 | [5] 0 | [6] 0 | [7] 0 | [8] 0 | [9] 0 | [10] 0 | [11] 0 | [12] 0 | [13] 0 | [14] 0 | [15] 0 | [16] 0 | [17] 0 | [18] 0 | [19] 0 | [20] 0

CCN1C(=O)CNc2ncc(-c3ccc(-c4nc[nH]n4)nc3C)nc21 [CC-115 (hydrochloride)] (2.5 µM)
inactive: [1] 0 | [2] 0 | [3] 0 | [4] 0 | [5] 0 | [6] 0 | [7] 0 | [8] 0 | [9] 0 | [10] 0 | [11] 0 | [12] 0 | [13] 0 | [14] 0 | [15] 0 | [16] 0 | [17] 0 | [18] 0 | [19] 0 | [20] 0

CNC(=O)c1cc(Oc2ccc3nc(N[C@@H]4CCCC[C@H]4O)sc3c2)ccn1 (10 µM)
inactive: [1] 0 | [2] 0 | [3] 0 | [4] 0 | [5] 0 | [6] 0 | [7] 0 | [8] 0 | [9] 0 | [10] 0 | [11] 0 | [12] 0 | [13] 0 | [14] 0 | [15] 0 | [16] 0 | [17] 0 | [18] 0 | [19] 0 | [20] 0

COc1ccc(-n2c(C)c([N+](=O)[O-])c3ccc(O)cc32)cc1 (10 µM)
inactive: [1] 0 | [2] 0 | [3] 0 | [4] 0 | [5] 0 | [6] 0 | [7] 0 | [8] 0 | [9] 0 | [10] 0 | [11] 0 | [12] 0 | [13] 0 | [14] 0 | [15] 0 | [16] 0 | [17] 0 | [18] 0 | [19] 0 | [20] 0

COc1cnccc1Nc1nc(-c2nn(Cc3c(F)cc(OCCO)cc3F)c3ccccc23)ncc1OC (10 µM)
inactive: [1] 0 | [2] 0 | [3] 0 | [4] 0 | [5] 0 | [6] 0 | [7] 0 | [8] 0 | [9] 0 | [10] 0 | [11] 0 | [12] 0 | [13] 0 | [14] 0 | [15] 0 | [16] 0 | [17] 0 | [18] 0 | [19] 0 | [20] 0

O=C(O)CCc1ccc(NCc2cccc(Oc3ccccc3)c2)cc1 (10 µM)
inactive: [1] 0 | [2] 0 | [3] 0 | [4] 0 | [5] 0 | [6] 0 | [7] 0 | [8] 0 | [9] 0 | [10] 0 | [11] 0 | [12] 0 | [13] 0 | [14] 0 | [15] 0 | [16] 0 | [17] 0 | [18] 0 | [19] 0 | [20] 0

CCc1ccc(C(=O)COc2ccc(CC3SC(=O)NC3=O)cc2)nc1 (stereo not given) (10 µM)
inactive: [1] 0 | [2] 0 | [3] 0 | [4] 0 | [5] 0 | [6] 0 | [7] 0 | [8] 0 | [9] 0 | [10] 0 | [11] 0 | [12] 0 | [13] 0 | [14] 0 | [15] 0 | [16] 0 | [17] 0 | [18] 0 | [19] 0 | [20] 0

CSc1ccc(CN2CCCC(Nc3ccc4[nH]ncc4c3)C2)cc1 (stereo not given) [Rho-Kinase-IN-1] (10 µM)
inactive: [1] 0 | [2] 0 | [3] 0 | [4] 0 | [5] 0 | [6] 0 | [7] 0 | [8] 0 | [9] 0 | [10] 0 | [11] 0 | [12] 0 | [13] 0 | [14] 0 | [15] 0 | [16] 0 | [17] 0 | [18] 0 | [19] 0 | [20] 0

COc1cc(C(=O)N2CCC(N3CCN(C)CC3)CC2)ccc1Nc1ncc2c(n1)N(C)c1ccccc1C(=O)N2C (10 µM)
inactive: [1] 0 | [2] 0 | [3] 0 | [4] 0 | [5] 0 | [6] 0 | [7] 0 | [8] 0 | [9] 0 | [10] 0 | [11] 0 | [12] 0 | [13] 0 | [14] 0 | [15] 0 | [16] 0 | [17] 0 | [18] 0 | [19] 0 | [20] 0

Cn1cc(-c2ccc(F)c(C(F)(F)F)c2)nc1C1CCN(c2ncnc3[nH]ncc23)CC1 (10 µM)
inactive: [1] 0 | [2] 0 | [3] 0 | [4] 0 | [5] 0 | [6] 0 | [7] 0 | [8] 0 | [9] 0 | [10] 0 | [11] 0 | [12] 0 | [13] 0 | [14] 0 | [15] 0 | [16] 0 | [17] 0 | [18] 0 | [19] 0 | [20] 0

NS(=O)(=O)c1ccc(N2N=C(c3ccccc3)CC2c2ccccc2)cc1 (stereo not given) (10 µM)
inactive: [1] 0 | [2] 0 | [3] 0 | [4] 0 | [5] 0 | [6] 0 | [7] 0 | [8] 0 | [9] 0 | [10] 0 | [11] 0 | [12] 0 | [13] 0 | [14] 0 | [15] 0 | [16] 0 | [17] 0 | [18] 0 | [19] 0 | [20] 0

A draw from above in order of number of heavy atoms, rising:
COc1ccc(-n2c(C)c([N+](=O)[O-])c3ccc(O)cc32)cc1 (10 µM)
inactive: [1] 0 | [2] 0 | [3] 0 | [4] 0 | [5] 0 | [6] 0 | [7] 0 | [8] 0 | [9] 0 | [10] 0 | [11] 0 | [12] 0 | [13] 0 | [14] 0 | [15] 0 | [16] 0 | [17] 0 | [18] 0 | [19] 0 | [20] 0

CSc1ccc(CN2CCCC(Nc3ccc4[nH]ncc4c3)C2)cc1 (stereo not given) [Rho-Kinase-IN-1] (10 µM)
inactive: [1] 0 | [2] 0 | [3] 0 | [4] 0 | [5] 0 | [6] 0 | [7] 0 | [8] 0 | [9] 0 | [10] 0 | [11] 0 | [12] 0 | [13] 0 | [14] 0 | [15] 0 | [16] 0 | [17] 0 | [18] 0 | [19] 0 | [20] 0

NS(=O)(=O)c1ccc(N2N=C(c3ccccc3)CC2c2ccccc2)cc1 (stereo not given) (10 µM)
inactive: [1] 0 | [2] 0 | [3] 0 | [4] 0 | [5] 0 | [6] 0 | [7] 0 | [8] 0 | [9] 0 | [10] 0 | [11] 0 | [12] 0 | [13] 0 | [14] 0 | [15] 0 | [16] 0 | [17] 0 | [18] 0 | [19] 0 | [20] 0

COc1cnccc1Nc1nc(-c2nn(Cc3c(F)cc(OCCO)cc3F)c3ccccc23)ncc1OC (10 µM)
inactive: [1] 0 | [2] 0 | [3] 0 | [4] 0 | [5] 0 | [6] 0 | [7] 0 | [8] 0 | [9] 0 | [10] 0 | [11] 0 | [12] 0 | [13] 0 | [14] 0 | [15] 0 | [16] 0 | [17] 0 | [18] 0 | [19] 0 | [20] 0

COc1cc(C(=O)N2CCC(N3CCN(C)CC3)CC2)ccc1Nc1ncc2c(n1)N(C)c1ccccc1C(=O)N2C (10 µM)
inactive: [1] 0 | [2] 0 | [3] 0 | [4] 0 | [5] 0 | [6] 0 | [7] 0 | [8] 0 | [9] 0 | [10] 0 | [11] 0 | [12] 0 | [13] 0 | [14] 0 | [15] 0 | [16] 0 | [17] 0 | [18] 0 | [19] 0 | [20] 0

(cont.)

CN1C(=O)NC(Cc2c[nH]c3c(Cl)cccc23)C1=O (racemic) [Necrostatin 2 (racemate)] (10 µM)
inactive: [1] 0 | [2] 0 | [3] 0 | [4] 0 | [5] 0 | [6] 0 | [7] 0 | [8] 0 | [9] 0 | [10] 0 | [11] 0 | [12] 0 | [13] 0 | [14] 0 | [15] 0 | [16] 0 | [17] 0 | [18] 0 | [19] 0 | [20] 0

O=C(O)c1ccc(N2N=C(Cc3ccccc3)C(=Cc3ccc(-c4ccccc4F)o3)C2=O)cc1 (10 µM)
inactive: [1] 0 | [2] 0 | [3] 0 | [4] 0 | [5] 0 | [6] 0 | [7] 0 | [8] 0 | [9] 0 | [10] 0 | [11] 0 | [12] 0 | [13] 0 | [14] 0 | [15] 0 | [16] 0 | [17] 0 | [18] 0 | [19] 0 | [20] 0
